Patent US20140370023A1 (HENRY M JACKSON FOUNDATION FOR THE ADVANCEMENT OF MILITARY …, published 2014)
Results are given in words; binding and its absence hold for the method and conditions named. Some entries that bind do so weakly or less than the wild type. For some assays here: Where a sequence is shown, tags or fusion partners need not be part of it.

What was measured:
[1] = biological target: T1, ERG protein encoded by the TMPRSS2/ERG3 fusion transcript (50-52 kDa) (human) (UniProt P11308); assay: chromatin immunoprecipitation, VCaP cells
T1 sequence: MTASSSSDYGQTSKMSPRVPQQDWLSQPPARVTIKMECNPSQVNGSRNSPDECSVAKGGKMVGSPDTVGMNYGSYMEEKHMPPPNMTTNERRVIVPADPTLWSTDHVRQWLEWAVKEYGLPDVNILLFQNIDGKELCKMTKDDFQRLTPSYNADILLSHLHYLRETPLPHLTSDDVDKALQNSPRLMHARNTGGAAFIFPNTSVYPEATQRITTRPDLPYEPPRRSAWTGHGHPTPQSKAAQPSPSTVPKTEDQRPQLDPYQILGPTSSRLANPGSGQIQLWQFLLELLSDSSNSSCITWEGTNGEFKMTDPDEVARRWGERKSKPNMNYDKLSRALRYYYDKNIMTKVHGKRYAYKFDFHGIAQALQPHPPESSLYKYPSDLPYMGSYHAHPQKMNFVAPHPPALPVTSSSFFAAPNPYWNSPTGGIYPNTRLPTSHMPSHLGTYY

[2] = biological target: T2, mouse ERG protein (mouse) (UniProt P81270); assay: IHC on FFPE mouse prostate tissue, 1:1000
T2 sequence (looked up): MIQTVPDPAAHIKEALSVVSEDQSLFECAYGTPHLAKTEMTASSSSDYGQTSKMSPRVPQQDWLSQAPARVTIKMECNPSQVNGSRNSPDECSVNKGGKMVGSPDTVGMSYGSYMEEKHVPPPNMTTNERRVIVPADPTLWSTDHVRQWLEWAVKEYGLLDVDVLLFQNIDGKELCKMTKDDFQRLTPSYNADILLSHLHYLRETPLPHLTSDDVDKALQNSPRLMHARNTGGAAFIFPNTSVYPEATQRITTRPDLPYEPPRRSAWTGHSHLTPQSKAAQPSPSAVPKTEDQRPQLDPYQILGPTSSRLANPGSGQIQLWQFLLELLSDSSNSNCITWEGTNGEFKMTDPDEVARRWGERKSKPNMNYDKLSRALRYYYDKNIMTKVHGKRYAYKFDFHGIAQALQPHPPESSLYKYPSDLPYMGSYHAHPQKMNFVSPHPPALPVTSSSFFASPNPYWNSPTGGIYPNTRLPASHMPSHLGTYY

[3] = biological target: T1, ERG protein encoded by the TMPRSS2/ERG3 fusion transcript (50-52 kDa) (human); assay: Western blot of TMPRSS2/ERG3 transfected HEK293 cells, 9FY at 1:5000
[4] = biological target: T1, ERG protein encoded by the TMPRSS2/ERG3 fusion transcript (50-52 kDa) (human); assay: competitive IF on VCaP cells
[5] = biological target: T1, ERG protein encoded by the TMPRSS2/ERG3 fusion transcript (50-52 kDa) (human); assay: Western blot of transfected HEK-293 lysates, 9FY at 1:5000
[6] = biological target: T1, ERG protein encoded by the TMPRSS2/ERG3 fusion transcript (50-52 kDa) (human); assay: Western blot of transfected HEK-293 lysates
[7] = biological target: T3, human ERG3 (encoded by TMPRSS2/ERG3 construct) with C-terminal FLAG tag (human) (UniProt P11308); assay: Western blot of transiently expressed FLAG-tagged proteins
T3 sequence: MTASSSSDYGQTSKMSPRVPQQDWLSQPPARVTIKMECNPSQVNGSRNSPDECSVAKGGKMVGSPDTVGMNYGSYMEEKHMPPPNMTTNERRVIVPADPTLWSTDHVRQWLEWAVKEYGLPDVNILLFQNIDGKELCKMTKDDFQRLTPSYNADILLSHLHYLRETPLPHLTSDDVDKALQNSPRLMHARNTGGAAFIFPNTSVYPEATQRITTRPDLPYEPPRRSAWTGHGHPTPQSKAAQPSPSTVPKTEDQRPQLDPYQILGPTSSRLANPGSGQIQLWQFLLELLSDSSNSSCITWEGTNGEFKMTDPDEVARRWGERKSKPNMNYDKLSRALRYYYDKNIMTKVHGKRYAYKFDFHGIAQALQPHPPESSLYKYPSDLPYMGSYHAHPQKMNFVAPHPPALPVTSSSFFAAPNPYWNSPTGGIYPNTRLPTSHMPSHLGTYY

[8] = biological target: T1, ERG protein encoded by the TMPRSS2/ERG3 fusion transcript (50-52 kDa) (human); assay: IF on VCaP cells; also at 1:5,000 to 1:20,000 dilution of 3.7 mg/ml stock
[9] = biological target: T1, ERG protein encoded by the TMPRSS2/ERG3 fusion transcript (50-52 kDa) (human); assay: immunoblot of pIRES-TMPRSS2-ERG3 transfected HEK293 lysates
[10] = biological target: T1, ERG protein encoded by the TMPRSS2/ERG3 fusion transcript (50-52 kDa) (human); assay: IF on VCaP cells
[11] = biological target: T1, ERG protein encoded by the TMPRSS2/ERG3 fusion transcript (50-52 kDa) (human); assay: chromatin immunoprecipitation, R1881-treated VCaP cells
[12] = biological target: T1, ERG protein encoded by the TMPRSS2/ERG3 fusion transcript (50-52 kDa) (human); assay: immunoblot of R1881-treated VCaP cell lysates
[13] = biological target: T4, protein product encoded by TMPRSS2/ERG2 (approximately 50-52 kDa) (human) (UniProt P11308); assay: Western blot of R1881-induced VCaP lysates
T4 sequence (looked up): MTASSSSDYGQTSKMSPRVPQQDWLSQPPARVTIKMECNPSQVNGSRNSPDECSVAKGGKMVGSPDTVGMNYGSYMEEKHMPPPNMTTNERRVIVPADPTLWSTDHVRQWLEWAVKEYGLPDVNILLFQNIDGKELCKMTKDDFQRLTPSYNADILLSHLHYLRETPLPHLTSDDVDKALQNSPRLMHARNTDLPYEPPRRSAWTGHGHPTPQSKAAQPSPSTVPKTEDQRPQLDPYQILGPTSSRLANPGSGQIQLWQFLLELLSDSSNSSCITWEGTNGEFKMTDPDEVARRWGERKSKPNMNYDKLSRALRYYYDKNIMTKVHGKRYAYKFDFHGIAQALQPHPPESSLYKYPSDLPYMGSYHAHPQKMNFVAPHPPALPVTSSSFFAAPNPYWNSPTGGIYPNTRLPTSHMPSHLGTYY

[14] = biological target: T1, ERG protein encoded by the TMPRSS2/ERG3 fusion transcript (50-52 kDa) (human); assay: Western blot of R1881-induced VCaP lysates

binding [1]: binds
binding [2]: binds
binding [3]: binds
binding [4]: binds
binding [5]: binds
binding [6]: binds
binding [7]: binds
binding [8]: binds
binding [9]: binds
binding [10]: binds
binding [11]: binds
binding [12]: binds
binding [13]: binds
binding [14]: binds
B1: 9FY antibody (monoclonal antibody produced by the hybridoma clone 9FY) (antibody, V domains shown)
VH: QIQLVQSGPDLKKPGETVKISCKASGYTFTNYGINWVKQAPGKGFKWMGWIDTYTGEPTYVDDFKGRFVFSLETSASTAYLQINNLKNEDTATYFCVRKRAYDYEIYWGQGTPLTVSS
VL: ENVLTQSPAIMSASLGEKVTLSCRASSSVYYMFWYQQKSDASPKLWIYYTSNLAPGVPARFSGSGSGNSYSLTISSVEGEDAATYYCLQFSTSPWTFGGGTKLEIKR
notes: Mouse (Balb/C) hybridoma antibody purified from ascites over Protein G; sub-type determined to be IgG; also called ERG-MAb; 9FY monoclonal antibody
